# In the supplement of paper PMC12067093, “Discovery and optimisation of a covalent ligand for TRIM25 and its application to targeted protein ubiquitination” (Chemical Science, 2025):
# Amino acid sequences for entries named in this document (tags omitted). A change or cut given only in a name is not applied to a line headed by its entry.
# UniProt P54920: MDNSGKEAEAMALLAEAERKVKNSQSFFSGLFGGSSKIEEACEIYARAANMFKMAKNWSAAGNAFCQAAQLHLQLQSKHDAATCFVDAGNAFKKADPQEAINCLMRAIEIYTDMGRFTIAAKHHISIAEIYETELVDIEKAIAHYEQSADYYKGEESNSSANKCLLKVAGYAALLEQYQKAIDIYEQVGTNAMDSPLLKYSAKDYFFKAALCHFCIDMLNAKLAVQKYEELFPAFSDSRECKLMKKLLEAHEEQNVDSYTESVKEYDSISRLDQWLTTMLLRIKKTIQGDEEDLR
# UniProt O43776: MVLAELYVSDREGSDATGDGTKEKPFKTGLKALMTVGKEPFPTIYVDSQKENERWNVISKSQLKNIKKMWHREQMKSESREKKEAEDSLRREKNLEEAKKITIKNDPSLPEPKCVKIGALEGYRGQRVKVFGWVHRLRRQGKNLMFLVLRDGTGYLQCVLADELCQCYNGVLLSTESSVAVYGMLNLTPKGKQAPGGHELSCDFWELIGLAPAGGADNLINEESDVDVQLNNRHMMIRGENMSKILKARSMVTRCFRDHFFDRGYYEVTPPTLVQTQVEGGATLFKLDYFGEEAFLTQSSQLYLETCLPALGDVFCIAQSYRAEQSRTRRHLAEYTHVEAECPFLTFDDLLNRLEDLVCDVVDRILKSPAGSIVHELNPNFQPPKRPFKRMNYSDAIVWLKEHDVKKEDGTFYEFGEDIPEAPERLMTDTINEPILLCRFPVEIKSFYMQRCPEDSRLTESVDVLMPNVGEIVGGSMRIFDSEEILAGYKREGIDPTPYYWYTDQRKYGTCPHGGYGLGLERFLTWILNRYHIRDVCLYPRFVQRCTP
# UniProt Q96RE7: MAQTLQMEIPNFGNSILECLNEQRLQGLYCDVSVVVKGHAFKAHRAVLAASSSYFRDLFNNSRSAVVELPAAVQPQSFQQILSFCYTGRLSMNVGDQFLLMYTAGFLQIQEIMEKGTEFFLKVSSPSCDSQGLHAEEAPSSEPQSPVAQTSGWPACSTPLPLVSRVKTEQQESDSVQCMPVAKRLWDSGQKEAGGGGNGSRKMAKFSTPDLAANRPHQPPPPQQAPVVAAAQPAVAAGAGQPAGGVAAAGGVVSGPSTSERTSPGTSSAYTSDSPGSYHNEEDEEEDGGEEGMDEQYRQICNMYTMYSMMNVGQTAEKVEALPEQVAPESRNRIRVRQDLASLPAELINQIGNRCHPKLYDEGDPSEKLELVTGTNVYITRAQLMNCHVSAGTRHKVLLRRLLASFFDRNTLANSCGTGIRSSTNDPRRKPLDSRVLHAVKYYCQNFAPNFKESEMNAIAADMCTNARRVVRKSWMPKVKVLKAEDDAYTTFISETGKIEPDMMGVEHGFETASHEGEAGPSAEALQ
# UniProt Q15003, whole entry, looked up: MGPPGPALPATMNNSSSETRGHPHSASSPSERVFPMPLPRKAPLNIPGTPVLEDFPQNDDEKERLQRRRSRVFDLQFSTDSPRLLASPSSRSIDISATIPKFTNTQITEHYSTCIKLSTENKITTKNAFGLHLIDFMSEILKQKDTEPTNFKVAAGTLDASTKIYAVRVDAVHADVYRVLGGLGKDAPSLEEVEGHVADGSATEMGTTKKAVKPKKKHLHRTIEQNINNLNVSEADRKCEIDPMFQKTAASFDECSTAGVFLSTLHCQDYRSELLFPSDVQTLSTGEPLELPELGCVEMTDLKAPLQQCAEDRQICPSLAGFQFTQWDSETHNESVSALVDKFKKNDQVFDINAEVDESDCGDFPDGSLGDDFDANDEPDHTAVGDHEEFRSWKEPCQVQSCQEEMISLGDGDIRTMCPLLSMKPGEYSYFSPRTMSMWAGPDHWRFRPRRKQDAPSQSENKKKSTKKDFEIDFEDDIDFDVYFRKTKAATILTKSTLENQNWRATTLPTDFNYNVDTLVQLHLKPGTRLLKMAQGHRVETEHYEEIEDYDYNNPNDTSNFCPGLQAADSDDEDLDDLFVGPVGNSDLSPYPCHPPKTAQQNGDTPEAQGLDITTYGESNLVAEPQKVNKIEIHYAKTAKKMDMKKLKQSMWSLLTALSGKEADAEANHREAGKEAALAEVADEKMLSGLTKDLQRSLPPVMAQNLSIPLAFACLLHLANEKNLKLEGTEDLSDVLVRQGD
# UniProt P49321, whole entry, looked up: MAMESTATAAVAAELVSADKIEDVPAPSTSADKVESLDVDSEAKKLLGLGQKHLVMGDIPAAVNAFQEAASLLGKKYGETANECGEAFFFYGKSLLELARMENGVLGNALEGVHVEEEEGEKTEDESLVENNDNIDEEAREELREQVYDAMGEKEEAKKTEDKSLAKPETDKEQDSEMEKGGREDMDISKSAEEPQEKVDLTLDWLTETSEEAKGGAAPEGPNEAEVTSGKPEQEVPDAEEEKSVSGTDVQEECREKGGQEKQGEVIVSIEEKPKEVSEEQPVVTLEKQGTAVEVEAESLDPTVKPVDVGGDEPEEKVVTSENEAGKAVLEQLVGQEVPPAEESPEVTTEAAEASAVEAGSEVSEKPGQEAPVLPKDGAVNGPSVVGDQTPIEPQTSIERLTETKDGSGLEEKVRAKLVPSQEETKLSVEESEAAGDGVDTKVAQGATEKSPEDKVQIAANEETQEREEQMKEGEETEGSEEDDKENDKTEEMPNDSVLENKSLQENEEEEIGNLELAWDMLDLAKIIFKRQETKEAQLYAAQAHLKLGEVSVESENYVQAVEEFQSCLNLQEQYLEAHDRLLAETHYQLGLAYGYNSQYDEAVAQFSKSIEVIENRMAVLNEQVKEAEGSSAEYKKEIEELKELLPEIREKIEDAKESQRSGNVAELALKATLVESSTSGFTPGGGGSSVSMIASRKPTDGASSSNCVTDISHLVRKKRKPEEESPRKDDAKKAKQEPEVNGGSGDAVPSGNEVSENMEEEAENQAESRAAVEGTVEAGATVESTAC
# UniProt B0I1T2: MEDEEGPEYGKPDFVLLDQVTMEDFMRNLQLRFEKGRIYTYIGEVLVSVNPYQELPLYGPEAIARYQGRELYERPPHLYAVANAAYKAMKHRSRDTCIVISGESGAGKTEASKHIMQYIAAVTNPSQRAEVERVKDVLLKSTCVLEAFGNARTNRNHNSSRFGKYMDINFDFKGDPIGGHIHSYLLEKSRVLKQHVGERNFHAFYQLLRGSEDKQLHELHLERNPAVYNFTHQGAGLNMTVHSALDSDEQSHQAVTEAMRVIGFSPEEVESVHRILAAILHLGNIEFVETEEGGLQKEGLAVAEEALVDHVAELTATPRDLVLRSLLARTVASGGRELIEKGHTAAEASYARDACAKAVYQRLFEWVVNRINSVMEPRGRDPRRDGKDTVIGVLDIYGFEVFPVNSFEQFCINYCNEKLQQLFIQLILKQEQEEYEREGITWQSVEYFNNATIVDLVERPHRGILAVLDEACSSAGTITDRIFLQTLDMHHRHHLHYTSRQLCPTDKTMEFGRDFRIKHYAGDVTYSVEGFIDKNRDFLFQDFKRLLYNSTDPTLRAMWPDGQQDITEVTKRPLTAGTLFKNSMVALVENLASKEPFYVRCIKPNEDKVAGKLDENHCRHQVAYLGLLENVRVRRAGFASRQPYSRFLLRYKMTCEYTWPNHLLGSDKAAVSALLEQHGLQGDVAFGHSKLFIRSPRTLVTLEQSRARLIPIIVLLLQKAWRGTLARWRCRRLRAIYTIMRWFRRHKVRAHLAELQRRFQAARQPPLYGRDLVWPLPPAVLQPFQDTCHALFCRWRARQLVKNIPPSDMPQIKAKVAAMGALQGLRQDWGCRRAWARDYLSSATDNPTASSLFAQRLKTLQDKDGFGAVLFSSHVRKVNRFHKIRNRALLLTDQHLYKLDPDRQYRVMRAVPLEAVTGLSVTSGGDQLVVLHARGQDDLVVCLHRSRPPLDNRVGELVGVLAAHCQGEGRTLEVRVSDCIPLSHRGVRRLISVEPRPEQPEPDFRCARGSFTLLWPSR
# UniProt Q4G0N4: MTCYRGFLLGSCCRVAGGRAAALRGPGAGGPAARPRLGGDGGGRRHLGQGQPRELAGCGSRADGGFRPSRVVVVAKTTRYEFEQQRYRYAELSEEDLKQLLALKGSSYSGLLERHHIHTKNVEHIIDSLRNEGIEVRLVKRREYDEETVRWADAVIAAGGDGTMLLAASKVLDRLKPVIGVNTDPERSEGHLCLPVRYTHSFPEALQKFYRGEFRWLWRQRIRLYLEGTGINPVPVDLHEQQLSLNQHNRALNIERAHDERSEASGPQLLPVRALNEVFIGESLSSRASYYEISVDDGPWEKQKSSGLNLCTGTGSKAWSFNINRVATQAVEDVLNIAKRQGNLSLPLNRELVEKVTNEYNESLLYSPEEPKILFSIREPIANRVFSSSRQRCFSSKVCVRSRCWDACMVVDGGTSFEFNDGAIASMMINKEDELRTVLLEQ
# UniProt P42695: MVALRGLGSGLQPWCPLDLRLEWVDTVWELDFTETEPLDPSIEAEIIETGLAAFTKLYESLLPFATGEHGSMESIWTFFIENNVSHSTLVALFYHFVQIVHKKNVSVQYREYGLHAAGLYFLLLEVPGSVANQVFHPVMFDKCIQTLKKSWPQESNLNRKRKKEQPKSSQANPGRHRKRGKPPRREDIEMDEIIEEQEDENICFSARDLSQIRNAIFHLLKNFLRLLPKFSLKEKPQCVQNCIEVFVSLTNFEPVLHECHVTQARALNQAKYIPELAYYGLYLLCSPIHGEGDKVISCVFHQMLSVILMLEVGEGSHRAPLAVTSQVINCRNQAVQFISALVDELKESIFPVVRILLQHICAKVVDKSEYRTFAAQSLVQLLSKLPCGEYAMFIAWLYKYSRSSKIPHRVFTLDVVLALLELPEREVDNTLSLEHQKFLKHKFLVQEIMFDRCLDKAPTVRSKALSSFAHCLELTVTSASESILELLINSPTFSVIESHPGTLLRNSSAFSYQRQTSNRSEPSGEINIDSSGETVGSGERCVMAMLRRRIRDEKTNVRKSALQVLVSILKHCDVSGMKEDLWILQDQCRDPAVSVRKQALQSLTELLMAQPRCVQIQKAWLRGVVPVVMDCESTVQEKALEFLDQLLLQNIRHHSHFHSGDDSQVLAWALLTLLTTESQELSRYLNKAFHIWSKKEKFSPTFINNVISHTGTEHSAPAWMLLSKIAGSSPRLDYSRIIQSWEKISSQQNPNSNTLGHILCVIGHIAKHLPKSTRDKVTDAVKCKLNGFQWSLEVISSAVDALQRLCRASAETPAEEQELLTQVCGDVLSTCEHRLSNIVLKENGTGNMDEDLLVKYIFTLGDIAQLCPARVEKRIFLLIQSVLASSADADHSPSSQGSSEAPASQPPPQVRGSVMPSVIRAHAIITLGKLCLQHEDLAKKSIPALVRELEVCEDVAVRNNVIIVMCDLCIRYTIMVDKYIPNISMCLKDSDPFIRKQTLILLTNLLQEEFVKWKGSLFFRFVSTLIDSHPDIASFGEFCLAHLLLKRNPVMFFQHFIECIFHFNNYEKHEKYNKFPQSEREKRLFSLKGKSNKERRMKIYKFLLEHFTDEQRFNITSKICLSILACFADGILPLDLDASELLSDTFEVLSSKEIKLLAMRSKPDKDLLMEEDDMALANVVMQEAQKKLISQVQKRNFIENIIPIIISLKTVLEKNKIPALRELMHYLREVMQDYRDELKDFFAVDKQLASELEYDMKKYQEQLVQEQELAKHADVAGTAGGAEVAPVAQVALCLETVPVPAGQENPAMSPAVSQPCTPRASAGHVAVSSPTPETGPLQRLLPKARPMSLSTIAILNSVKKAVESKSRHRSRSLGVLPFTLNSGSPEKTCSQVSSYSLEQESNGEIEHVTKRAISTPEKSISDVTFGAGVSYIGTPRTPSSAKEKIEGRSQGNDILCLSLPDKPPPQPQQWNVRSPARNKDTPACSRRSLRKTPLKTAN
# UniProt Q6XQN6: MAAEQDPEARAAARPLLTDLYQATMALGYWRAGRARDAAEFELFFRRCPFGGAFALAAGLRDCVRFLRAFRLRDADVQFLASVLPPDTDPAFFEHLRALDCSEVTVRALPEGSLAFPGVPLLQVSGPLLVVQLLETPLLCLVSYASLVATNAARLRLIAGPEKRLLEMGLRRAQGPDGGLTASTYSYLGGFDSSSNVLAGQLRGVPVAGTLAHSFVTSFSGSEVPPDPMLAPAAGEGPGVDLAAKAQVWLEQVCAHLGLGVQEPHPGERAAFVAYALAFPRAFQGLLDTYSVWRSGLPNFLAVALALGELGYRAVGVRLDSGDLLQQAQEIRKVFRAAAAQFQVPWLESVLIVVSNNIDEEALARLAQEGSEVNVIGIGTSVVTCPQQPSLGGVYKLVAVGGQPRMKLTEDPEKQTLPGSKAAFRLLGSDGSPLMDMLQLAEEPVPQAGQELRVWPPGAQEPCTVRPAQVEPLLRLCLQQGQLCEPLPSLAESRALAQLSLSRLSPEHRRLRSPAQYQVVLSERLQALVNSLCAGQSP
# Some of the results follow.
# Compound: Cc1cc(ccc1-c1ccccc1)C(=O)N1CCCN(CC1)C(=O)CCl [compound 10]
# Experiment: probe-labelled cysteine peptide fold change vs DMSO (competition) (log2 fold change); higher = less target engagement (more negative = stronger competition)
# Conditions: 10 µM; THP-1; incubation time: 4 h
# 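Further: competitive profiling in live THP-1 cells: cysteine peptides tagged with an iodoacetamide desthiobiotin (IA-DTB) probe, intensity after compound treatment relative to DMSO-treated cells.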
row,Target,probe-labelled cysteine peptide fold change
1,NAPA_P54920_66_NWSAAGNAFCQAAQLHLQLQSK (UniProt P54920),0.0996
2,NAT1_P18440_223+233_SFCSLQTPDGVHCLVGFTLTHR (UniProt P18440),0.158
3,NARS_O43776_452_CPEDSR (UniProt O43776),0.0788
4,MYO6_Q9UM54_362_VVAGVLHLGNIDFEEAGSTSGGCNLK (UniProt Q9UM54),-0.00821
5,NCAM1_P13591_287_NDEAEYICIAENK (UniProt P13591),-0.152
6,NCF2_P19878_499_VNEEWLEGECK (UniProt P19878),0.102
7,MYO1C_O00159_802_CPENAFFLDHVR (UniProt O00159),-0.271
8,NACC1_Q96RE7_178_TEQQESDSVQCMPVAK (UniProt Q96RE7),-0.621
9,NCAPH_Q15003_114_FTNTQITEHYSTCIK (UniProt Q15003),0.194
10,NASP_P49321_254_SVSGTDVQEECR (UniProt P49321),0.127
11,NARS_O43776_438_LMTDTINEPILLCR (UniProt O43776),0.0634
12,NCDN_Q9UBB6_469_LLLPGWCHLTVEDGPR (UniProt Q9UBB6),0.142
13,MYO18A_Q92614_1199_NLTLFQAACR (UniProt Q92614),-0.11
14,NAA15_Q9BXJ9_817_NLQTCMEVLEALYDGSLGDCK (UniProt Q9BXJ9),0.000519
15,NASP_P49321_84_YGETANECGEAFFFYGK (UniProt P49321),0.193
16,MYO1G_B0I1T2_97_SRDTCIVISGESGAGK (UniProt B0I1T2),-0.0723
17,NACC1_Q96RE7_464_ESEMNAIAADMCTNAR (UniProt Q96RE7),0.0605
18,MYO1G_B0I1T2_97_DTCIVISGESGAGK (UniProt B0I1T2),-0.00786
19,NAA30_Q147X3_195_LLSSSLTADCSLR (UniProt Q147X3),-0.082

row,Target,probe-labelled cysteine peptide fold change
1,NAA25_Q14CX7_365_KFGDKPCCFTDLK (UniProt Q14CX7),-0.174
2,MYO9B_Q13459_1665_ALLCSVCK (UniProt Q13459),-0.0508
3,NADK2_Q4G0N4_311_SSGLNLCTGTGSK (UniProt Q4G0N4),-0.0936
4,NARS_O43776_342_RHLAEYTHVEAECPFLTFDDLLNR (UniProt O43776),0.137
5,NAA16_Q6N069_465_EAEEMCSK (UniProt Q6N069),-0.079
6,NCAPD3_P42695_760_ISSQQNPNSNTLGHILCVIGHIAK (UniProt P42695),-0.174
7,NCAPD3_P42695_1484_DTPACSR (UniProt P42695),-0.0913
8,NCAPG2_Q86XI2_498_ICPMEHILVR (UniProt Q86XI2),-0.15
9,NAPRT_Q6XQN6_48_CPFGGAFALAAGLRDCVR (UniProt Q6XQN6),-0.262
10,NCAPG2_Q86XI2_401_STGILGVCK (UniProt Q86XI2),0.0223
11,NCKAP1L_P55160_1032_DGYNNNIHCLTK (UniProt P55160),-0.169
12,NAPA_P54920_42_IEEACEIYAR (UniProt P54920),0.045
13,NAGA_P17050_343_ASALVFFSCR (UniProt P17050),-0.066
14,NAT10_Q9H0A0_517_DTLFCYHK (UniProt Q9H0A0),0.114
15,MYO1F_O00160_807_GQVCEVLKK (UniProt O00160),-0.225
16,MYO1G_B0I1T2_965_VGELVGVLAAHCQGEGR (UniProt B0I1T2),0.03
17,NAPRT_Q6XQN6_463_VWPPGAQEPCTVRPAQVEPLLR (UniProt Q6XQN6),-0.107
18,NCAM2_O15394_42_FFTCTAIGEPESIDWYNPQGEK (UniProt O15394),0.0886
19,MYSM1_Q5VVJ2_564_SSFDPFQLIPCNFFSEEK (UniProt Q5VVJ2),0.0482

# Single entries from above:
# In probe-labelled cysteine peptide fold change, NADK2_Q4G0N4_311_SSGLNLCTGTGSK (UniProt Q4G0N4) reads -0.0936
# In probe-labelled cysteine peptide fold change, NAPRT_Q6XQN6_463_VWPPGAQEPCTVRPAQVEPLLR (UniProt Q6XQN6) reads -0.107
